This is one part of the list.
Tests used:
Assay in all cases: log2 fold change, soluble protein after heating vs DMSO (PISA); higher = thermal stabilisation; K562 cells, 10 uM, 30 min; active = over 0.2 and 3.5 SD of the protein, either way, in both replicates (recomputed)
[1] = compound: COC1=CC=C(C=C1)CN2C=CC3=C2C=C(C=C3)C(=O)NO
Procedure, shortened: (§1)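 K562 cells at 2×10^6 cells/mL were exposed to 10 μM compound for 30 min, then aliquots were heated for 3 min across 48°C-58°C, pooled, and extracted in PBS containing 0.5% NP-40 at 4°C. The supernatant after 21,000xg for 90 min was taken as soluble protein and measured by TMTpro 16plex LC-MS/MS with channel sums equalised. Thermal stability is reported relative to control samples, with values from duplicates. Fold changes are given on a log2 scale.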

Protein sequences, listed by entry. Tags and fused reporters are not part of them. Lines headed by an entry give the natural chain unless they say otherwise; changes in a name come on top.
UniProt O75460: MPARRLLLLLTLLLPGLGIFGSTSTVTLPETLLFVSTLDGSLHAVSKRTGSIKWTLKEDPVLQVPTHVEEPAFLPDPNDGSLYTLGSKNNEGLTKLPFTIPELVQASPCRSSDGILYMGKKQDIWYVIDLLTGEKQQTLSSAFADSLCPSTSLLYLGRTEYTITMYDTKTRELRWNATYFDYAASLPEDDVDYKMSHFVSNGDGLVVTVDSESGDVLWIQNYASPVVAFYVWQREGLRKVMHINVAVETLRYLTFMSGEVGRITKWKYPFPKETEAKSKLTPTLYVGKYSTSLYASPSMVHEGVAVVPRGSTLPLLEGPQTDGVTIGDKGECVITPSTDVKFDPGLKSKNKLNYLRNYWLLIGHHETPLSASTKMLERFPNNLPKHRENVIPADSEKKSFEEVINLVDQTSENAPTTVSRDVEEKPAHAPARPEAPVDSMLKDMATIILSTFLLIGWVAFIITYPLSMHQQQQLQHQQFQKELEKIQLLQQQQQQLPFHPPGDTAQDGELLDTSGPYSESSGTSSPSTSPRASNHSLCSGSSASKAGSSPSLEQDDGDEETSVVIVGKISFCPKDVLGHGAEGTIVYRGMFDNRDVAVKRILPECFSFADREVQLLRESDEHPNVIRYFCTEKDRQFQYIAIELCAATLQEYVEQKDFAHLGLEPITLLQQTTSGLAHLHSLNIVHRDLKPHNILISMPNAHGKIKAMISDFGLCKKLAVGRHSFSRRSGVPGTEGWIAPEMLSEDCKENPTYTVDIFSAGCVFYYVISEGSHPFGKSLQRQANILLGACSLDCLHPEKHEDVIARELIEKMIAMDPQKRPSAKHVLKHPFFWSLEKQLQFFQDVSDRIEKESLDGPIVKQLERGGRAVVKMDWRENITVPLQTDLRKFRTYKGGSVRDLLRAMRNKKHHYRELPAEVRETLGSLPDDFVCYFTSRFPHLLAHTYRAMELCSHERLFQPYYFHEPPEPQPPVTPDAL
UniProt Q5T8I3: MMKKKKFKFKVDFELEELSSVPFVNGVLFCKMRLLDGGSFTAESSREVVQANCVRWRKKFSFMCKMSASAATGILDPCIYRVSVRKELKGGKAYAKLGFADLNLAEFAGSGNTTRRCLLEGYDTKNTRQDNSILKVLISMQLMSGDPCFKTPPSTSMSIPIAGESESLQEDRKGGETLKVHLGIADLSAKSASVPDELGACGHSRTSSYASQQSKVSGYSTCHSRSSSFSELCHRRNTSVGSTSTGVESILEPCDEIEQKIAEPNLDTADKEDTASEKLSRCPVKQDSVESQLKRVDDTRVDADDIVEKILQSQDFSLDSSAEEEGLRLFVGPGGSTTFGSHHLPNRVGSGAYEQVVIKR
UniProt Q99504: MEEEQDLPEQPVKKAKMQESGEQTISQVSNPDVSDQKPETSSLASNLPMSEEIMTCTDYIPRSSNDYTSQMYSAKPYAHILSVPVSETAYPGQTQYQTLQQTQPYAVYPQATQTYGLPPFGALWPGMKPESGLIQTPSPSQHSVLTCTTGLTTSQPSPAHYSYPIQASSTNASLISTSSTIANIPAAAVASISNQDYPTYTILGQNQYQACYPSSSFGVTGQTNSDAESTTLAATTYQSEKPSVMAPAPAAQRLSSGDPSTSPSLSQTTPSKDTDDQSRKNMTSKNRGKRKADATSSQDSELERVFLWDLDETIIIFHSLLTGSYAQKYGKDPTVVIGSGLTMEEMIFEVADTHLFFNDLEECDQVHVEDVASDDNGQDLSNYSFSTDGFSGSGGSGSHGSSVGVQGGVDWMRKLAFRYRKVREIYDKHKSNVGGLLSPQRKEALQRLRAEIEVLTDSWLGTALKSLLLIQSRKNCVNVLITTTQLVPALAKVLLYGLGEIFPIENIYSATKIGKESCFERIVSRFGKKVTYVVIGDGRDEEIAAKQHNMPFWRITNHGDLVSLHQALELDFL
UniProt Q9BYI3: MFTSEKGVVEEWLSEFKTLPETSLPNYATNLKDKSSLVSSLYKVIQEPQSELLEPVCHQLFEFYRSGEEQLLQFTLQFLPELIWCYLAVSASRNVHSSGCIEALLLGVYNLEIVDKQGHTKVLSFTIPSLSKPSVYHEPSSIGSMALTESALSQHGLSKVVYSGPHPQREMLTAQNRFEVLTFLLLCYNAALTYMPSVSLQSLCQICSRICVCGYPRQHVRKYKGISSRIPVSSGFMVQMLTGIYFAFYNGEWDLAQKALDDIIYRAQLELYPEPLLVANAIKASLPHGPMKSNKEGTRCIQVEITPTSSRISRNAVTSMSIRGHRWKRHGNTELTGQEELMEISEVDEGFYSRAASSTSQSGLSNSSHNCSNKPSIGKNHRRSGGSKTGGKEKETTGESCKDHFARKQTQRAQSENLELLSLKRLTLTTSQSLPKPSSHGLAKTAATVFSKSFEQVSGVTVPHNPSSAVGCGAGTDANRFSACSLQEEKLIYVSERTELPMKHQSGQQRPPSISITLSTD
UniProt Q8IXS8: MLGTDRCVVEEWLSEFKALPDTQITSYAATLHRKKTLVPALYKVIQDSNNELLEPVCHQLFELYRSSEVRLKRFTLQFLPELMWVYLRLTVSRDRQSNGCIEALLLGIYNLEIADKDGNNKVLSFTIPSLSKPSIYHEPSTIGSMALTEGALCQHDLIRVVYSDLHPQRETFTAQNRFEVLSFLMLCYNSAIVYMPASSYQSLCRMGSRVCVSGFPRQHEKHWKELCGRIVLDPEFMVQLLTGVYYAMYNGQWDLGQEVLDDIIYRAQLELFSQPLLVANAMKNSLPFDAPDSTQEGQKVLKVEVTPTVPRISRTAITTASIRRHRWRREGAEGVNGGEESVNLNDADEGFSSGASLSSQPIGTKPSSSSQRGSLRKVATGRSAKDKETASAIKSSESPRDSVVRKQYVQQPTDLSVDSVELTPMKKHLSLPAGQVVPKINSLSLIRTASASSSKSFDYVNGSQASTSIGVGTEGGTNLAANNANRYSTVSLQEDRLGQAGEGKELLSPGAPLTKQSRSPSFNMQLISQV
UniProt Q8TE68: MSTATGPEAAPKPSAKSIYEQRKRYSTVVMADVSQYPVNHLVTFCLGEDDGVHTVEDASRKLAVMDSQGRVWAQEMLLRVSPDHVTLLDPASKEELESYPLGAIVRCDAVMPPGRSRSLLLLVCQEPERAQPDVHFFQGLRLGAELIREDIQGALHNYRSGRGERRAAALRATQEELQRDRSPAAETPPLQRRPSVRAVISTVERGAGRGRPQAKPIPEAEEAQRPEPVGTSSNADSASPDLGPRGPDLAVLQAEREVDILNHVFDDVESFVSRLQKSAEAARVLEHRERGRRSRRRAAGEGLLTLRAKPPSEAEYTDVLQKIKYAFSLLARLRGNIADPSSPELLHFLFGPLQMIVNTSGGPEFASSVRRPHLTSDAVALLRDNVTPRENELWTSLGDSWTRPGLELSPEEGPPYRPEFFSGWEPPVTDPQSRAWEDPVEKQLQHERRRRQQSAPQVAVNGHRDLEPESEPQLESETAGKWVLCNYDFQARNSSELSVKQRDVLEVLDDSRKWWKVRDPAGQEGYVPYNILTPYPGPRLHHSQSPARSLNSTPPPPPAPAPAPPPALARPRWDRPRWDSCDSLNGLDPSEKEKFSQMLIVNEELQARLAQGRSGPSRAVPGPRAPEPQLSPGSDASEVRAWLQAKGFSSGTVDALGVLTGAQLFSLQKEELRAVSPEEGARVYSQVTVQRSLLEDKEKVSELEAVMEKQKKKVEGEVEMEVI
UniProt P00740, whole entry, looked up: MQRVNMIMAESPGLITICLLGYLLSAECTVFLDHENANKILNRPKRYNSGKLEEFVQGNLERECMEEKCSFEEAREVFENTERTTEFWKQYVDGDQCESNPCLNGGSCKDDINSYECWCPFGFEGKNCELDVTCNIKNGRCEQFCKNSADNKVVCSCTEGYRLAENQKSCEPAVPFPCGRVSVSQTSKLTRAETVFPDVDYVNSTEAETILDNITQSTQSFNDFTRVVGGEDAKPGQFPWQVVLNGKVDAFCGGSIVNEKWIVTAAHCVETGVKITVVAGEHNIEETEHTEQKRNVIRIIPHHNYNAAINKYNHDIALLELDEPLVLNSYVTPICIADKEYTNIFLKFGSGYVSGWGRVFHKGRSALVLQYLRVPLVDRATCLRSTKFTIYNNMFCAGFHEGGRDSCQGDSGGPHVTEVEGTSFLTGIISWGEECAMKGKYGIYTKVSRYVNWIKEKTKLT
UniProt Q9H098: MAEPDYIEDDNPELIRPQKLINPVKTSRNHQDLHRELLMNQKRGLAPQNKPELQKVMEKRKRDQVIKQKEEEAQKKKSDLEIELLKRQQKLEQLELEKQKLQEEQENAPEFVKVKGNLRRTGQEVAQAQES
UniProt P00488: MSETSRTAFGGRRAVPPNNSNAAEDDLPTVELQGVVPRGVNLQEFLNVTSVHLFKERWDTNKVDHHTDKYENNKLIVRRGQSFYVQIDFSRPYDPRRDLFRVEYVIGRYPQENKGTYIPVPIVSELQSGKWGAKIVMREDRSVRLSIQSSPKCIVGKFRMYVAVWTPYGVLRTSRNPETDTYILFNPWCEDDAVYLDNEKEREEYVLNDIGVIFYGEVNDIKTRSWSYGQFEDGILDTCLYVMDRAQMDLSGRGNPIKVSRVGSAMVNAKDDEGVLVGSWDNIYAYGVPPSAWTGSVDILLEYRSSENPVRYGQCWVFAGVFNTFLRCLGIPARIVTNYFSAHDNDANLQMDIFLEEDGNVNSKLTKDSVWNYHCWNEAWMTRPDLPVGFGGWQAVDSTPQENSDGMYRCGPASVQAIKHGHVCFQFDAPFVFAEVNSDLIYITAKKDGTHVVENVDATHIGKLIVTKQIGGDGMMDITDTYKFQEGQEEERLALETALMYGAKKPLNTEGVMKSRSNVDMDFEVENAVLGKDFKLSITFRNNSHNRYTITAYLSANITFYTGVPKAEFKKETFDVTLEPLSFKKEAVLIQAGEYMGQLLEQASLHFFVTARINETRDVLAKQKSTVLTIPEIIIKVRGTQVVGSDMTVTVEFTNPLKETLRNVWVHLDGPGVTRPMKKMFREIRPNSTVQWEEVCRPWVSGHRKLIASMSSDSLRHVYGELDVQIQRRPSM
UniProt Q5T6L9: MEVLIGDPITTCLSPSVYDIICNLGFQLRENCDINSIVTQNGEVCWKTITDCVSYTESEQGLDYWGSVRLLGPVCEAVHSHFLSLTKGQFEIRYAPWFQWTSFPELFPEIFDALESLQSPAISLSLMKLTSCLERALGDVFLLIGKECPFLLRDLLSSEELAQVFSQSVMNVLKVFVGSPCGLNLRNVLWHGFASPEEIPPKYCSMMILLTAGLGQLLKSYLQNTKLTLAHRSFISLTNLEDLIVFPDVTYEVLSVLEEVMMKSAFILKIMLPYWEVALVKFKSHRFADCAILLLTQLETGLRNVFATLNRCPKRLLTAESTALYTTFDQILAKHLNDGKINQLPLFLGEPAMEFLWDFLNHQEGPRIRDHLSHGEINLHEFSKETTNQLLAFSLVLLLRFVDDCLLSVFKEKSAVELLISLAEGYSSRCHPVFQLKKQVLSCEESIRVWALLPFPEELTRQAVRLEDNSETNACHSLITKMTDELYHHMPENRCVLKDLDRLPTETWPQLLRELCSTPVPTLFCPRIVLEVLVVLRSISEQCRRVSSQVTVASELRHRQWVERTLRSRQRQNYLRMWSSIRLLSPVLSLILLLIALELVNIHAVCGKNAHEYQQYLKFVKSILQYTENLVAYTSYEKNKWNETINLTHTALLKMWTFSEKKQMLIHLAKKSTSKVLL
UniProt Q9H2F5, whole entry, looked up: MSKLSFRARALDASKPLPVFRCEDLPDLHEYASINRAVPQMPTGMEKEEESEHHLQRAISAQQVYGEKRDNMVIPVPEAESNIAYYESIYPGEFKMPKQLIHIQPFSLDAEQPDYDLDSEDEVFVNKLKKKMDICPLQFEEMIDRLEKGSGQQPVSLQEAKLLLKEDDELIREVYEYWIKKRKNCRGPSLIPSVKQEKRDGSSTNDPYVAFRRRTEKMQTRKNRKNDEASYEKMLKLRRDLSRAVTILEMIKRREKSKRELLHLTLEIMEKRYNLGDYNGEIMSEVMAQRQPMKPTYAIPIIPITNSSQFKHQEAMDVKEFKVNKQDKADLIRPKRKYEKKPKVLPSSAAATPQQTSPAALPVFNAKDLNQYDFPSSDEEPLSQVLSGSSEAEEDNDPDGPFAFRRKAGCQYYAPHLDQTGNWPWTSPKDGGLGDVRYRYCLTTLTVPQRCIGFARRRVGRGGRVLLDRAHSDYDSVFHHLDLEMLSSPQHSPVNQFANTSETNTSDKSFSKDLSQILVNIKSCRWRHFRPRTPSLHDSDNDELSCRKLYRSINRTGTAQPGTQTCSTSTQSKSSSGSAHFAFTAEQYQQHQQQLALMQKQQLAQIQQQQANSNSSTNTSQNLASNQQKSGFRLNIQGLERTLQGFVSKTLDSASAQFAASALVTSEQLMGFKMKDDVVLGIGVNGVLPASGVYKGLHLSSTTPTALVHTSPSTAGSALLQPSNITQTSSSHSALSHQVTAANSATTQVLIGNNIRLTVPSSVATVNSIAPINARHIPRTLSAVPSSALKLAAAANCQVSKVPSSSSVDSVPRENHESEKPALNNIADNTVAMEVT

[2] = compound: CON(C)C(=O)N1N=C(c2cc(F)ccc2F)S[C@@]1(CCCN)c1ccccc1 [filanesib]
Procedure, shortened: as §1

[3] = compound: CO[C@H]1C[C@@H]2CC[C@@H](C)[C@@](O)(O2)C(=O)C(=O)N2CCCC[C@H]2C(=O)O[C@H]([C@H](C)C[C@@H]2CC[C@H](n3cnnn3)[C@H](OC)C2)CC(=O)[C@H](C)/C=C(\C)[C@@H](O)[C@@H](OC)C(=O)[C@H](C)C[C@H](C)/C=C/C=C/C=C/1C [zotarolimus]
Procedure, shortened: as §1

[4] = compound: COc1cc(C(=O)O)ccc1NC(=O)[C@@H]1N[C@@H](CC(C)(C)C)[C@](C#N)(c2ccc(Cl)cc2F)[C@H]1c1cccc(Cl)c1F [idasanutlin]
Procedure, shortened: as §1

[5] = compound: COc1cc(Nc2ncc3c(n2)-c2ccc(Cl)cc2C(c2c(F)cccc2OC)=NC3)ccc1C(=O)O [alisertib]
Procedure, shortened: as §1

[6] = compound: COc1cc2nc(-c3cc(F)ccc3O)nc(N[C@@H]3CNC[C@H]3C(C)(C)O)c2cc1OC
Procedure, shortened: as §1

[7] = compound: COc1cccc2cc(-c3nc([C@H]4CC[C@H](C(=O)O)CC4)n4ncnc(N)c34)[nH]c12
Procedure, shortened: as §1

[8] = compound: CS(=O)(=O)CCNCc1ccc(-c2ccc3ncnc(Nc4ccc(OCc5cccc(F)c5)c(Cl)c4)c3c2)o1 [lapatinib]
Procedure, shortened: as §1

[9] = compound: COc1cc2ncnc(Nc3ccc(F)c(Cl)c3)c2cc1OCCCN1CCOCC1 [gefitinib]
Procedure, shortened: as §1

[10] = compound: CS(=O)(=O)N1CCN(Cc2cc3nc(-c4cccc5[nH]ncc45)nc(N4CCOCC4)c3s2)CC1 [pictilisib]
Procedure, shortened: as §1

Measured: log2 fold change

EZH2 isoform 2 (UniProt Q15910)
inactive: [1] -0.105 | [2] -0.113 | [3] -0.073 | [4] 0.073 | [5] -0.209 | [6] -0.129 | [7] -0.144 | [8] 0.112

F10 (UniProt P00742)
inactive: [1] -0.06 | [2] 0.157 | [5] -0.095 | [9] -0.156 | [7] 0.157

FAM133B (UniProt Q5BKY9)
inactive: [1] -0.121 | [2] 0.142 | [3] -0.007 | [4] 0.045 | [5] -0.053 | [6] -0.042 | [9] 0.039 | [7] 0.03 | [8] -0.04 | [10] 0.016

EPS8L2 isoform 3 (UniProt Q9H6S3)
inactive: [2] -0.023

ERH (UniProt P84090)
inactive: [1] -0.018 | [3] 0.019 | [4] 0.141 | [5] 0.18 | [6] -0.284 | [9] 0.029 | [7] 0.037 | [8] -0.007 | [10] 0.025

ESPL1 (UniProt Q14674)
inactive: [1] -0.198 | [2] 0.043 | [3] -0.106 | [4] -0.171 | [5] -0.344 | [6] 0.198 | [9] -0.048 | [7] 0.378 | [8] -0.038 | [10] 0.122

FAM207A (UniProt Q9NSI2)
inactive: [1] -0.034 | [2] 0.238 | [4] 0.009 | [5] 0.238 | [6] 0.108 | [9] -0.124 | [7] -0.146 | [8] 0.041 | [10] -0.097

FAM193B (UniProt Q96PV7)
inactive: [1] -0.179 | [2] 0.379 | [3] -0.077 | [4] 0.311 | [6] 0.112 | [8] -0.066

FAM136A (UniProt Q96C01)
inactive: [1] 0.036 | [2] -0.021 | [3] 0.011 | [4] -0.057 | [5] -0.022 | [6] -0.049 | [9] 0 | [7] 0.002 | [8] -0.019 | [10] 0.05

ERN1 (UniProt O75460)
inactive: [1] -0.141 | [2] -0.017 | [5] 0.138 | [6] 0.082 | [9] -0.027 | [7] 0.136 | [8] -0.084 | [10] -0.64

ESRRB isoform 1 (UniProt O95718)
inactive: [1] -0.169 | [3] 0.193

EXOSC9 isoform 2 (UniProt Q06265)
inactive: [1] 0.004 | [2] 0.053 | [3] -0.006 | [4] -0.007 | [5] -0.045 | [6] -0.005 | [9] -0.022 | [7] 0.016 | [8] 0.008 | [10] 0.009

EWSR1 (UniProt H7BY36)
inactive: [3] -0.106 | [4] 0.022 | [5] -0.252 | [6] 0.028 | [9] -0.008 | [7] -0.062 | [8] 0.094

EPHB4 (UniProt P54760)
inactive: [2] 0.134 | [5] -0.017 | [6] 0.395 | [8] 0.08
active: [7] -0.937

FAM122B isoform 2 (UniProt Q7Z309)
inactive: [3] 0.02 | [5] -0.112 | [7] 0.123

Taken from above (3 entries):
EXOSC9 isoform 2 (UniProt Q06265)
inactive: [1] 0.004 | [2] 0.053 | [3] -0.006 | [4] -0.007 | [5] -0.045 | [6] -0.005 | [9] -0.022 | [7] 0.016 | [8] 0.008 | [10] 0.009

EWSR1 (UniProt H7BY36)
inactive: [3] -0.106 | [4] 0.022 | [5] -0.252 | [6] 0.028 | [9] -0.008 | [7] -0.062 | [8] 0.094

EPHB4 (UniProt P54760)
inactive: [2] 0.134 | [5] -0.017 | [6] 0.395 | [8] 0.08
active: [7] -0.937

Going on with the list.

EVA1B (UniProt Q9NVM1)
inactive: [5] -0.492 | [7] 0.206

FAM102B (UniProt Q5T8I3)
inactive: [6] 0.182 | [8] 0.154

EXOG (UniProt Q9Y2C4)
inactive: [3] -0.008 | [4] 0.015 | [5] -0.2 | [6] -0.103 | [7] 0.16 | [8] 0.014 | [10] -0.008

EYA3 (UniProt Q99504)
inactive: [3] 0.054 | [4] 0.073 | [5] 0.26 | [7] -0.025 | [10] 0.169

FAM110A (UniProt Q9BQ89)
inactive: [10] 0.064

F2R (UniProt P25116)
inactive: [3] -0.132 | [4] 0.038 | [6] -0.232 | [8] -0.065 | [10] -0.154

FADS2 (UniProt O95864)
inactive: [10] 0.106

FAM126A (UniProt Q9BYI3)
inactive: [4] 0.113 | [5] -0.198 | [7] -0.104

FAM126B (UniProt Q8IXS8)
inactive: [4] -0.07 | [6] -0.091 | [9] -0.01 | [8] -0.098 | [10] 0.104

EPS8L1 (UniProt Q8TE68)
inactive: [3] 0.165

FAM171A2 (UniProt A8MVW0)
inactive: [10] 0.007

EVPL (UniProt Q92817)
inactive: [2] 0.151 | [5] 0 | [9] 0.118 | [7] 0.219 | [10] 0.463

ETF1 isoform 2 (UniProt P62495)
inactive: [4] -0.126 | [6] 0.145 | [8] -0.25 | [10] 0.005

FAM178B (UniProt Q8IXR5)
inactive: [10] 0.055

ERF (UniProt P50548)
inactive: [2] 0.328 | [10] 0.148

FAAP20 isoform 2 (UniProt Q6NZ36)
inactive: [5] -0.068 | [7] 0.045 | [10] 0.119

EVI5 isoform 2 (UniProt O60447)
inactive: [3] -0.093 | [4] 0.149 | [6] 0.052 | [8] -0.119 | [10] -0.138

F2RL3 (UniProt Q96RI0)
inactive: [3] -0.075 | [4] -0.017 | [6] 0.017 | [8] 0.029

ERAP2 (UniProt Q6P179)
inactive: [5] 0.353 | [6] 0.204 | [9] 0.146 | [7] 0.08 | [8] -0.049

F13B (UniProt P05160)
inactive: [3] 0.09

F9 (UniProt P00740)
inactive: [3] -0.218 | [4] 0.021 | [6] 0.068 | [9] 0.184 | [8] -0.021

FAM107B isoform 2 (UniProt Q9H098)
inactive: [10] 0.153

F13A1 (UniProt P00488)
inactive: [5] 0.049 | [9] 0.257 | [7] 0.099

FABP3 (UniProt P05413)
inactive: [4] 0.078

ERMARD (UniProt Q5T6L9)
inactive: [3] 0.098 | [5] -0.558 | [7] 0.281

FAM135A (UniProt Q9P2D6)
inactive: [2] 0.13 | [9] 0.052

EPC1 (UniProt Q9H2F5)
inactive: [5] -0.132 | [7] -0.195

ESF1 (UniProt Q9H501)
inactive: [2] 0.159 | [10] -0.044

FAM160B2 (UniProt Q86V87)
inactive: [3] 0.08 | [5] -0.034 | [7] -0.231 | [10] -0.099

FAM120B (UniProt Q96EK7)
inactive: [4] 0.086 | [10] -0.231

ESYT2 (UniProt H7BXI1)
inactive: [2] -0.165 | [4] -0.085 | [5] -0.154 | [6] 0.011 | [9] -0.02 | [7] 0 | [8] -0.09
